For this assay, the target named is Sey1p-ΔTM (S. cerevisiae). The assay is described as follows: SEC; Superdex 200 (10/300), 20 mM HEPES-NaOH pH 7.4, 150 mM NaCl; Sey1p-ΔTM incubated at 30°C for 1 h with GMP-PNP, without or with the Lnp1p peptide; both purified. (In general: In gel filtration, larger molecules generally elute earlier.)

The results in this text go back to publication PMC10679814, “Yeast lunapark regulates the formation of trans-Sey1p complexes for homotypic ER membrane fusion” (iScience, 2023).

Results are given in words; binding and its absence hold for the method and conditions named. A result given as binding can be weak or reduced; the word gives no strength.

B1: Lnp1p peptide, a synthetic peptide with the N-terminal region (amino acids 1-52) of Lnp1p (peptide, UniProt P38878 1-52, looked up)
peptide: MFSALGKWVRGSRNDKDFVTKYTADLSQITSQIHQLDVALKKSQSILSQWQS
notes: Lnp1p (yeast lunapark), S. cerevisiae, amino acids 1-52; also called LNP1 peptide; source: synthetic peptide (custom, Anygen)
For B1, the binding entry was “binds”.
